Experimental findings from PMC7140648 are described below.

Amino acid sequences for entries named in this document (tags omitted).
UniProt P13861: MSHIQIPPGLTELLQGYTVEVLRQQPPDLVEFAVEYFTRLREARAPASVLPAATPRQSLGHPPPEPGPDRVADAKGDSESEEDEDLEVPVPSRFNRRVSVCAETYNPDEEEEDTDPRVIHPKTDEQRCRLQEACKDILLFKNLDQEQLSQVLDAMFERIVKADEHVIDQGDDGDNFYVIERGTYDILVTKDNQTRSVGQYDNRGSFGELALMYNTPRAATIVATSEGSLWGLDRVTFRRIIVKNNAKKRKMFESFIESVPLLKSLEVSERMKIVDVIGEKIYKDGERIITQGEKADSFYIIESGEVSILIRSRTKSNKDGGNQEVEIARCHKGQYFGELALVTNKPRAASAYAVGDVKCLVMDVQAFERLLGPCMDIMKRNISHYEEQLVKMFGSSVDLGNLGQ
UniProt P12367: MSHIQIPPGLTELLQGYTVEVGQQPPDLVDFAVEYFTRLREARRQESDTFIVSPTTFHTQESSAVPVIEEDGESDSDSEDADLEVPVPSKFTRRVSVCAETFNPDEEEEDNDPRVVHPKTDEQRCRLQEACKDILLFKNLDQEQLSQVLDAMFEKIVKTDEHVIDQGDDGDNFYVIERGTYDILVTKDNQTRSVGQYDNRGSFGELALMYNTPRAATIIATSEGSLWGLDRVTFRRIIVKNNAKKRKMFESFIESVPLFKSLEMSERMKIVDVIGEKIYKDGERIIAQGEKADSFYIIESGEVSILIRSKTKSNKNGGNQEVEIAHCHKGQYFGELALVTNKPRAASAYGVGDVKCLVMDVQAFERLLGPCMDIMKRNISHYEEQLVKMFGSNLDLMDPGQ
UniProt Q04899: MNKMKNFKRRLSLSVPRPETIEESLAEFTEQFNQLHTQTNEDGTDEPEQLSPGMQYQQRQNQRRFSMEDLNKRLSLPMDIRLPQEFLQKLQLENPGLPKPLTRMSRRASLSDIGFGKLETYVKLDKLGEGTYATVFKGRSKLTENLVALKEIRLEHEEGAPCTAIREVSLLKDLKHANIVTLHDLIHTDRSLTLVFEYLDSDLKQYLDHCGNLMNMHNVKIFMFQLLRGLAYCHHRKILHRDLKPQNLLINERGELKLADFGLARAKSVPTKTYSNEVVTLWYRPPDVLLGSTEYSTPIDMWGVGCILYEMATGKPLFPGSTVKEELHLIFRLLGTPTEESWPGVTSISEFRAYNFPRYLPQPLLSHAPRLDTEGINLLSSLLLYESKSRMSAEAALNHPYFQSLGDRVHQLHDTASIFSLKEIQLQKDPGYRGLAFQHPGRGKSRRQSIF

The target in assay [1] is T1, murine STUB1 spot-synthesised peptides covering amino acids 150–190 (spots 1–5) (mouse) (UniProt Q9WUD1).
T1 sequence (peptide): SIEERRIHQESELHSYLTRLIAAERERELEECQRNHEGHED
Kind of assay: peptide or protein array; RII overlay: murine STUB1 spot-synthesised as 20-mer peptides with 5 residues offset, incubated with 32P-labelled recombinant human RIIα in the absence or presence of peptide L314E; both purified.

Assay [2] has as its target STUB1 (STIP1 homology and U-box containing protein 1) (mouse (endogenous in MCD4)) (UniProt Q9WUD1). Kind of assay: co-IP; anti-STUB1 on Protein A Dynabeads, MCD4 lysate in mild lysis buffer, 1-3 h at 4 °C; cells untreated or stimulated with forskolin; control IgG.

Results are given in words; binding and its absence hold for the method and conditions named. For some of these results: In cells and extracts the contact can be indirect. Some binding calls cover weakened binding; strength is not graded here.

Take “recombinant human RIIα subunits of PKA, 32P-labelled (from UniProt P13861 1-404)”: the binding entry in assay [1] is given as “binds”.

For “regulatory RIIα subunits of PKA, endogenous (from UniProt P12367 1-401)”, the binding entry in assay [2] was “binds”.

In the case of “cyclin-dependent kinase 18 (CDK18), endogenous (from UniProt Q04899 1-451) (enzyme)”, the binding result in assay [2] is listed as “binds”.

B1: aquaporin-2 (AQP2), human, stably expressed in MCD4 cells (protein, UniProt P41181 1-271)
chain: MWELRSIAFSRAVFAEFLATLLFVFFGLGSALNWPQALPSVLQIAMAFGLGIGTLVQALGHISGAHINPAVTVACLVGCHVSVLRAAFYVAAQLLGAVAGAALLHEITPADIRGDLAVNALSNSTTAGQAVTVELFLTLQLVLCIFASTDERRGENPGTPALSIGFSVALGHLLGIHYTGCSMNPARSLAPAVVTGKFDDHWVFWIGPLVGAILGSLLYNYVLFPPAKSLSERLAVLKGLEPDTDWEEREVRRRQSVELHSPQSLPRGTKA
In the case of B1, the binding entry in assay [2] is recorded as “binds”.
